Changes are numbered by the printed parent chain. These are yes or no findings as the source states them, for the method shown. In cells and extracts the contact can be indirect. Some entries that bind do so weakly or less than the wild type. For some assays here: Tags and fused reporters may be left off the sequences shown.
Tests used:
[1] = target: T1, Flag-tagged RIP1 KK-AT-S161E in RIP1 KO L929 cells (mouse) (UniProt Q60855); assay: co-IP; necrosome immunoprecipitation from L929 cells (Flag-RIP1 knock-in or RIP1 KO reconstituted with RIP1 variants) treated with mTNF + zVAD, with or without BHA/amytal; anti-Flag M2 beads at 4 °C overnight; blots with anti-RIP1, anti-RIP3, anti-FADD
T1 sequence: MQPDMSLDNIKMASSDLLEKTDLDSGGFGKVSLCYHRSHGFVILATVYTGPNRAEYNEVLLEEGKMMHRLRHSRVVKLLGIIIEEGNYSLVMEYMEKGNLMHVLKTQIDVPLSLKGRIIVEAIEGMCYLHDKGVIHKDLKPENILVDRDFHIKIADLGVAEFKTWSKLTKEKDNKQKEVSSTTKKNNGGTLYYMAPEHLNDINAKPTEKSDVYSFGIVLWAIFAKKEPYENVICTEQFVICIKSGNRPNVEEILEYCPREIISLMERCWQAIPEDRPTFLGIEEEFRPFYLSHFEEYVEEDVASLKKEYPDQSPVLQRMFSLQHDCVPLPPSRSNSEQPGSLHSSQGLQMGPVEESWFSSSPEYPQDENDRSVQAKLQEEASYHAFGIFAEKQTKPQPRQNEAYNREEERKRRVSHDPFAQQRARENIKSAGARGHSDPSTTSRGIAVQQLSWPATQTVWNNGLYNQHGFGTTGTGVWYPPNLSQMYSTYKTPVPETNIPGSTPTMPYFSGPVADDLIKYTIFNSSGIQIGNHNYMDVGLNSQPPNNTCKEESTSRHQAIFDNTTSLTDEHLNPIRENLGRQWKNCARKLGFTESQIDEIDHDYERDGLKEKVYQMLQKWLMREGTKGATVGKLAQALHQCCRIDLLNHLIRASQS

The chains behind the UniProt entries cited, without tags or fusion partners.
UniProt Q13546: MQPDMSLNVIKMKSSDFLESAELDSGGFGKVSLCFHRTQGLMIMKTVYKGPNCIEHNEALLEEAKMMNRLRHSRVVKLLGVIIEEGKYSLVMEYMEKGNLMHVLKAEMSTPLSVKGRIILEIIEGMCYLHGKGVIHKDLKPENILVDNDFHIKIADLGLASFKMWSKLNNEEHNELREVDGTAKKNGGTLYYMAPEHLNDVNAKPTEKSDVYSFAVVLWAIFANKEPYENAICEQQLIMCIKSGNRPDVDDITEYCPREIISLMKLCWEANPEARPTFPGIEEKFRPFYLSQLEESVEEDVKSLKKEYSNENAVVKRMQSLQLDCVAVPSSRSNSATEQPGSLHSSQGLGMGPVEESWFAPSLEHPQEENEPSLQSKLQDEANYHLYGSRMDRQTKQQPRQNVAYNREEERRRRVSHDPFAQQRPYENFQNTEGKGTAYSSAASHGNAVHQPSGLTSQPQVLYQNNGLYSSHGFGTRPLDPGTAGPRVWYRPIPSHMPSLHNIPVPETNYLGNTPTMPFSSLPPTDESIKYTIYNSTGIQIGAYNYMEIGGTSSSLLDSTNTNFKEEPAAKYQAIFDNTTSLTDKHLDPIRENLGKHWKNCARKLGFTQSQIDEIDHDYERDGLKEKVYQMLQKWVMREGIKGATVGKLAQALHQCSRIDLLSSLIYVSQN
UniProt Q9QZL0: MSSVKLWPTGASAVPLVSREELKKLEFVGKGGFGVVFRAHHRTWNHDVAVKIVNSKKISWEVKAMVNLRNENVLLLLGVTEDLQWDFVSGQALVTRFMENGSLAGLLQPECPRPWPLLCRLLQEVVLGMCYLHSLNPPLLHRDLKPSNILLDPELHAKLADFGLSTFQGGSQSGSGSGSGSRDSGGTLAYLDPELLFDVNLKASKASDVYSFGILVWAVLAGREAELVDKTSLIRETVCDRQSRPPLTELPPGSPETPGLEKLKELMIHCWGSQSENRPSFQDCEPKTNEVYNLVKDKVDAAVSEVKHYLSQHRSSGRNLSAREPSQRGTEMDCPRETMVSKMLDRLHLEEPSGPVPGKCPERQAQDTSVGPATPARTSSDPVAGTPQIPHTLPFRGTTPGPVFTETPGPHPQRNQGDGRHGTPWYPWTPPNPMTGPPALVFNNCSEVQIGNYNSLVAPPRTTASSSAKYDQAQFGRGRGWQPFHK
UniProt Q9Y572: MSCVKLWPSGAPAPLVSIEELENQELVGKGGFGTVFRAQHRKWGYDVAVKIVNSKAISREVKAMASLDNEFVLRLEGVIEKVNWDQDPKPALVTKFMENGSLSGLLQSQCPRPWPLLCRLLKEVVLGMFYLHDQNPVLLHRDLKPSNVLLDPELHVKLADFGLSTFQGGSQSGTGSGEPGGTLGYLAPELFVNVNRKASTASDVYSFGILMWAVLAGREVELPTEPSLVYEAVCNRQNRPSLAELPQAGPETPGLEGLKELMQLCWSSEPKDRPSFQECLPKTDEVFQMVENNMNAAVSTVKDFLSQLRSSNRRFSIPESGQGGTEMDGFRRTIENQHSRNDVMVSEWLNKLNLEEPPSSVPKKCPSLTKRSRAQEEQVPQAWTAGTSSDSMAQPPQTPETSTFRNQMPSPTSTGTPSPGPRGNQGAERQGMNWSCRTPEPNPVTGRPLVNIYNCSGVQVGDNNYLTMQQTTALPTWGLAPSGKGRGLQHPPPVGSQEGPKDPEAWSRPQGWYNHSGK

[2] = target: T2, Flag-tagged RIP1 3CS-S161E in RIP1 KO L929 cells (mouse) (UniProt Q60855); assay: as above
T2 sequence: T1 sequence with A45K, T46K, C257S, C268S, C586S

[3] = target: T3, KK-AT-S161E RIP1 co-expressed in RIP1 KO HEK293T cells (mouse) (UniProt Q60855); assay: co-IP; co-expression in RIP1 KO HEK293T cell line and co-immunoprecipitation; details in Supplementary Fig. 7, not shown
T3 sequence: T1 sequence

[4] = target: T4, Flag-tagged KK-AT RIP1 expressed in RIP1 KO HEK293T cells (mouse) (UniProt Q60855); assay: as above
T4 sequence: T1 sequence with E161S

[5] = target: RIP1, endogenous in HeLa-RIP3 cells (human (endogenous in HeLa)) (UniProt Q13546); assay: co-IP; necrosome formation in HeLa-RIP3 cells induced by human TNF, with or without BHA/amytal; details in Supplementary Fig. 6f-g, not shown

Substance: RIP3, endogenous in L929 cells (from UniProt Q9QZL0 1-486)
- binding [1]: binds
- binding [2]: binds

Substance: RIP3 co-expressed with RIP1 in RIP1 KO HEK293T cells (from UniProt Q9QZL0 1-486)
- binding [3]: binds
- binding [4]: binds

Substance: RIP3 overexpressed in HeLa cells (HeLa-RIP3) (from UniProt Q9Y572 1-518)
- binding [5]: binds

Reference: publication PMC5309790
